Publication PMC7819943, “Rice protein-binding microarrays: a tool to detect cis-acting elements near promoter regions in rice”
This is one part of the list.

These sequences were tested against T1, OsSMF1 (Oryza sativa, UniProt Q6ZLB0 1-436) (assay: protein-binding microarray (RPBM); PBS, 2% BSA, 51.3 ng/ul salmon testes DNA, 50 uM zinc acetate, 200 nM TF, 25 C, 1 h; high values mean tight binding). Details: protein: recombinant; tags: N-terminal polyhistidine and DsRed monomer fusion (pET32a); chain copies: 2; label: CyDye5-dUTP incorporated in the synthesized complementary strand; 3' TTTTT single-stranded linker to array surface; dsDNA, one strand shown.
T1 sequence: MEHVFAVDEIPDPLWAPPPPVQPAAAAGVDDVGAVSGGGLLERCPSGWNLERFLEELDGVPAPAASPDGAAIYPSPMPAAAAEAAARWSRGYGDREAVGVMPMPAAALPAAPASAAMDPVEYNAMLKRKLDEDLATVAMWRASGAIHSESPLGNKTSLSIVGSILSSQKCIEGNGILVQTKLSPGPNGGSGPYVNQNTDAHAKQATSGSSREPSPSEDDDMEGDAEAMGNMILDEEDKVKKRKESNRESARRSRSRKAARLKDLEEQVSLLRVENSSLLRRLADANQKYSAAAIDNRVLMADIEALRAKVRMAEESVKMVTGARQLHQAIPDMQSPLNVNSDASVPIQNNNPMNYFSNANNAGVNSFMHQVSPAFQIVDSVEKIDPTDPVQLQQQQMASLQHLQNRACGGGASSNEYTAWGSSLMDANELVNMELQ
Procedure, shortened: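 Binding signal is defined as the fluorescence intensity of each feature in arbitrary units, read on an Axon 4000B scanner. Transcription factors with N-terminal polyhistidine and DsRed fusions came from E. coli BL21-CodonPlus and were purified on Ni–NTA. They were incubated at 200 nM for 1 h at 25 °C on a custom Agilent array that had been made double-stranded with Cy5-dUTP, with 50 µM zinc acetate present, and the array was washed.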

Sequence	binding signal
CACGCCCACTCCCCGCCCTCCACCGTGGCCGCCGTCACGTCGGAGTCACCTAGTGCAG	5400 fluorescence intensity (a.u.)
GTTGGTACTCCTGTCTGAATCATCAGTCTGAACTTGACCTCGGAGTCACCTAGTGCAG	3980 fluorescence intensity (a.u.)
CCTTCCTGCCATTGTAGTGGTCAAATCTTTCAGCGTGGGCCGGAGTCACCTAGTGCAG	3380 fluorescence intensity (a.u.)
GTGCTTATATATATATACACGCATGCACACTCAACTCTGACGGAGTCACCTAGTGCAG	4250 fluorescence intensity (a.u.)
TATTGATCCACGTGGCTACAGCCTACGGGCTGCATCAATCCGGAGTCACCTAGTGCAG	8570 fluorescence intensity (a.u.)
GTTCACGTGGCGGCTAGCAGAGCGCCCGCACGCGGGTGGGCGGAGTCACCTAGTGCAG	3740 fluorescence intensity (a.u.)
CATACTCCTTGTTCCTGAGCCATACCTCGCCACCTTGCTGCGGAGTCACCTAGTGCAG	3760 fluorescence intensity (a.u.)
GTAATGACAGGTGACACCTAAGGTCTGTGAAACATACTCCCGGAGTCACCTAGTGCAG	3880 fluorescence intensity (a.u.)
TTTAGGTTCCATAGATATCTGGTTTCGTTGACGTGGCATCCGGAGTCACCTAGTGCAG	27800 fluorescence intensity (a.u.)
TGCCATCAACCGAACAGATTGCCCTCTCCTATCTACACGACGGAGTCACCTAGTGCAG	4220 fluorescence intensity (a.u.)
CACCACGGCCCCAGCTCATGACGTGTTGAGAGGGAAGCGTCGGAGTCACCTAGTGCAG	8370 fluorescence intensity (a.u.)
AATACGAAACCGACGGAGTAATAATAAACAGATAAATAAACGGAGTCACCTAGTGCAG	3220 fluorescence intensity (a.u.)
CAGCCATACAACGAATGCGAGCCACTCCACGTGCAGGTGCCGGAGTCACCTAGTGCAG	4140 fluorescence intensity (a.u.)
GTGATGAGTTTGATGACTGTTGAACTGATCCATACTCCCTCGGAGTCACCTAGTGCAG	4030 fluorescence intensity (a.u.)
TCCACTTCAGACCCAATTCCACATCAGACCCAACTTCTAGCGGAGTCACCTAGTGCAG	5270 fluorescence intensity (a.u.)
GCCACTTGTAGTATGATGTGTTTGTTTCCTACCATAACTACGGAGTCACCTAGTGCAG	4400 fluorescence intensity (a.u.)
CAGCTTTCGTTGACCCGCTCGGCGTTAGCACTCGAGAGTCCGGAGTCACCTAGTGCAG	3370 fluorescence intensity (a.u.)
TCACAGTAGGTGGACCCGTACACGTACACGCCTCTTTCCTCGGAGTCACCTAGTGCAG	6460 fluorescence intensity (a.u.)
TCGTGCCACCTCAGGCACTTGCTTTTGATTCACCTGTAAACGGAGTCACCTAGTGCAG	4530 fluorescence intensity (a.u.)
GCCAGCCGGAGCCCAGGTGGCGGACACCGTCCATGGCCGCCGGAGTCACCTAGTGCAG	3670 fluorescence intensity (a.u.)
CATTTTACACTCTCTTGCATCGAATGTTTTGACACATGCACGGAGTCACCTAGTGCAG	3890 fluorescence intensity (a.u.)

7 successive records already listed, for reference:
Sequence	binding signal
CAGCCATACAACGAATGCGAGCCACTCCACGTGCAGGTGCCGGAGTCACCTAGTGCAG	4140 fluorescence intensity (a.u.)
GTGATGAGTTTGATGACTGTTGAACTGATCCATACTCCCTCGGAGTCACCTAGTGCAG	4030 fluorescence intensity (a.u.)
TCCACTTCAGACCCAATTCCACATCAGACCCAACTTCTAGCGGAGTCACCTAGTGCAG	5270 fluorescence intensity (a.u.)
GCCACTTGTAGTATGATGTGTTTGTTTCCTACCATAACTACGGAGTCACCTAGTGCAG	4400 fluorescence intensity (a.u.)
CAGCTTTCGTTGACCCGCTCGGCGTTAGCACTCGAGAGTCCGGAGTCACCTAGTGCAG	3370 fluorescence intensity (a.u.)
TCACAGTAGGTGGACCCGTACACGTACACGCCTCTTTCCTCGGAGTCACCTAGTGCAG	6460 fluorescence intensity (a.u.)
TCGTGCCACCTCAGGCACTTGCTTTTGATTCACCTGTAAACGGAGTCACCTAGTGCAG	4530 fluorescence intensity (a.u.)

More entries.

Sequence	binding signal
TCTACTCCAGGGTCTTCTCGCTGTCGTGGCAGTTCTACGGCGGAGTCACCTAGTGCAG	5700 fluorescence intensity (a.u.)
GAGTCGTGGTCAATGGTATGTAGGTGGATGGACCTCAGTGCGGAGTCACCTAGTGCAG	4550 fluorescence intensity (a.u.)
TTTCAATCTCTTTCTTCTCTCCAAAACACAAATCGTCGCCCGGAGTCACCTAGTGCAG	13500 fluorescence intensity (a.u.)
CTGTGTGGCTCCTATCAACTGCTTGCAAGAATTGTTATTTCGGAGTCACCTAGTGCAG	3740 fluorescence intensity (a.u.)
GTTGATTCATCTCGCGATTGATCGAGCTCGAGCGGCGGTGCGGAGTCACCTAGTGCAG	14100 fluorescence intensity (a.u.)
ACTTGGCAACGGGAGAGATGTACGTGGCGTGAAATCTCTGCGGAGTCACCTAGTGCAG	4910 fluorescence intensity (a.u.)
GCAGCAGAATTGCAGCTCAGGTGCTCGTCGGCGTCATCACCGGAGTCACCTAGTGCAG	6180 fluorescence intensity (a.u.)
TATCCACTACTGCGTCAGTCACTCCCCGCGAGCTAAGCTCCGGAGTCACCTAGTGCAG	3320 fluorescence intensity (a.u.)
TATTGCCCTATCCGGTCAATGGATACCTCATATGTTGTGTCGGAGTCACCTAGTGCAG	3210 fluorescence intensity (a.u.)
GAAAATGCTGACGTCGTCAACTCTGTTTCAAGTCTCACGTCGGAGTCACCTAGTGCAG	10200 fluorescence intensity (a.u.)
CCACCATACAAAACCACCTTAGAGGGTAATATGAACGGTTCGGAGTCACCTAGTGCAG	31800 fluorescence intensity (a.u.)
ATTACGGGGATGGGAATTTATCCTCATGACTCCCTGCCTTCGGAGTCACCTAGTGCAG	3760 fluorescence intensity (a.u.)
GGCCGTTTCCTTCTCAGTTTGGACCACATATGGGCCGACACGGAGTCACCTAGTGCAG	16700 fluorescence intensity (a.u.)
AGCCTCTGCCACGGCGGCGACACCCGACTTCTCCTTCTCCCGGAGTCACCTAGTGCAG	7620 fluorescence intensity (a.u.)
CCGAACCGATTCCACAGTGACTCCGCACCATTTCCGACATCGGAGTCACCTAGTGCAG	4580 fluorescence intensity (a.u.)
GAACTAACCTTTGCCACCACTGATCCCTGCTGCTACTCCTCGGAGTCACCTAGTGCAG	3190 fluorescence intensity (a.u.)
CATCACTATCTTGTTGGAGCTGTATTGTCATCGTGTAATACGGAGTCACCTAGTGCAG	4190 fluorescence intensity (a.u.)
CCAACAAGGCCTACTCGCACGTCGTCACTCCGTCCATCTCCGGAGTCACCTAGTGCAG	5300 fluorescence intensity (a.u.)
TCCTCCACGTCAGAAGCGGTGATGGCTGGCGTTCTGCCGACGGAGTCACCTAGTGCAG	27900 fluorescence intensity (a.u.)
CATCGTACACCACGTGTTACCAGTGTCTTGACCAAAGCGGCGGAGTCACCTAGTGCAG	6910 fluorescence intensity (a.u.)
CTGAGACAAGGGAATGCTTGGGGATCGGGGTAATTGATGACGGAGTCACCTAGTGCAG	4560 fluorescence intensity (a.u.)
